Results are given in words; binding and its absence hold for the method and conditions named. Some binding calls cover weakened binding; strength is not graded here.
Molecular target: mFGFR2β-Fc (IIIb) (Mouse) (UniProt P21803)
Test: ELISA; biotinylated Fc fusion protein on streptavidin plate, Fab at 1 µg/ml; signal against TRAIL-Fc wells (+++: ratio >5)

Sequences of proteins named here, by UniProt entry; tags and fusion partners are left off. A change or cut given only in a name is not applied to a line headed by its entry. A line that says so, or that is headed by a name, gives the form on record, which may keep a tag or linker.
mFGFR2β-Fc (IIIb) (P21803, form named): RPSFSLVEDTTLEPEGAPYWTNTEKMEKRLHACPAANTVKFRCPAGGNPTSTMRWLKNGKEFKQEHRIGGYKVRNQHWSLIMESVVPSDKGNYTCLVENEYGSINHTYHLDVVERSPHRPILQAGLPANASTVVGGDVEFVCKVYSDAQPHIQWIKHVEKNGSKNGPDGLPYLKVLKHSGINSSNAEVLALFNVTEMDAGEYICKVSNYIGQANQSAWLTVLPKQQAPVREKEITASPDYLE

B1: parental Fab fragment M048-D01 (Fab, V domains shown)
VH: EVQLLESGGGLVQPGGSLRLSCAASGFTFSSYAMSWVRQAPGKGLEWVSAISGSGTSTYYADSVKGRFTISRDNSKNTLYLQMNSLRAEDTAVYYCARVRYNWNHGDWFDPWGQGTLVTVSS
VL: QSVLTQPPSASGTPGQRVTISCSGSSSNIGNNYVSWYQQLPGTAPKLLIYENYNRPAGVPDRFSGSKSGTSASLAISGLRSEDEADYYCSSWDDSLNYWVFGGGTKLTVL
- binding: binds

From patent US20150023989A1, “NEW ANTIBODY DRUG CONJUGATES (ADCS) AND THE USE THEREOF” (SEATTLE GENETICS, INC., priority 2011, published 2015)
